From PubChem BioAssay AID1347136 (National Center for Advancing Translational Sciences (NCATS), 2019)
Inconclusive results, whose numbers are uncertain, are shown with a selection of clear calls. Where the call is inconclusive, the potency comes from a doubtful curve fit. Active and inactive are the calls of the source. Calls come from the whole dose curve; as a rule, active = well fitted inhibition curve with a large enough effect; inconclusive = small, poorly fitted or top-dose-only effect; inactive = no such curve, though single readings can be large or run the other way.

Assay: qHTS of pediatric cancer cell lines to identify multiple opportunities for drug repurposing: Orthogonal 3D viability screen for SJ-GBM2 cells
Conditions: SJ-GBM2 3D spheroid viability, PI/Hoechst imaging, 72 h
From the text: Drug repurposing or repositioning has been offered as a strategy for drug development in oncology programs. This approach has special potential for childhood cancers and other rare or orphan diseases, where the expected return on new drug development has been a disincentive to pharmaceuticals. […] In this project we exploit the poly-pharmacology of drugs to discover new indications via phenotypic screening of a panel of 19 well-characterized cell lines derived from solid tumors seen in children and adolescents. The goal is to identify approved drugs with previously unrecognized anticancer properties that has the potential to reveal new mechanisms and biological processes involved in carcinogenesis or drug resistance. We employed a titration-based paradigm (quantitative high-throughput screening or qHTS), where all compounds were tested at multiple concentrations for their effect on cell viability. Concentration-response curves (CRCs) were derived directly from the primary screen, and both potency and efficacy values were used to identify compounds with robust bioactivity profiles. […] These two assays will be used to validate active compounds and assess the correlation of compound's potency in 2D vs 3D cultures on selected cell lines. Assay Submitter: Nathalia J. Martinez, National Center for Advancing Translational Sciences, National Institutes of Health, Rockville, MD, USA; email: natalia.martinez@nih.gov Shen, M et al. Quantitative high-throughput phenotypic screening of pediatric cancer cell lines identifies multiple opportunities for drug repurposing. Oncotarget 2017 Dec 19;9(4):4758-4772. PMID 29435139.
The cells were obtained from University of North Carolina (UNC), Pediatric Preclinical Testing Program (PPT), and Coriell Institute (CI). qHTS viability in 3D culture: Cells were assayed in phenol red-free growth media at a density of 1,000 cells/well, with the exception of Daoy, and SH-N-SH which were assayed at 1,500 cells/ well. Thirty muL of cells were dispensed into 384-well, ULA, round bottom plates (Corning) using a Multidrop dispenser. Plates were spun down at 1,000 rpm for 1 min and incubated at 37 degrees C, 5% CO2, under a humidified atmosphere for either 24 (Daoy) or 48 hours (all other cell lines) to allow spheroid formation. Ninety-two nanoliter of compounds and controls (neutral control DMSO or positive control bortezomib at final concentrations of 0.5 µM) were subsequently transferred via GNF Pintool. Plates were sealed using a breathable seal (Diversified Biotech, Dedham, MA) and incubated for 72 hours at 37 degrees C. Spheroid viability was first determined by high-content imaging using Hoechst 33342 and Propidium Iodide (PI, ThermoFisher Scientific), followed by addition of CellTiter-Glo 3D (Promega). Specifically, 3 µL/well of PBS containing a 1:500 dilution of both dyes was dispensed using Multidrop. Dyes were incubated for 1 hour before imaging using the Celigo Image Cytometer. Then, 20 µl of CellTiter-Glo 3D were added per well. Plates were incubated for 30 min at RT on a VWR microplate shaker (300 rpm) and analyzed for luminescence intensity using a ViewLux High-throughput CCD imager equipped with clear filters. Image analysis was done using the Celigo Tumorsphere 1+2+3 application software as previously described. Briefly, spheroids were first identified using bright-field image segmentation, and then the fluorescent intensities of PI and Hoechst 3342 were obtained using red (EX: 531/40 nm, EM: 629/53 nm) and blue (EX: 377/50 nm, EM: 470/22 nm) filters, respectively. The data were exported to Excel, and the average fluorescent intensities were used to calculate the ratio of PI over Hoechst, which was used to quantify viability. Percent activity based on neutral and positive control bortezomib was derived.

Compound | Potency
COc1cc([C@@H]2c3cc4c(cc3[C@H](O)[C@H]3COC(=O)[C@H]23)OCO4)cc(OC)c1OC | active: 36.2 nM
CN(C)/N=N/c1nc[nH]c1C(N)=O | inconclusive: 10200 nM [inhibitor, partial curve]
COC(=O)Nc1nc2ccc(C(=O)c3ccc(F)cc3)cc2[nH]1 | active: 909 nM
C[C@@H]1C[C@H]2[C@@H]3CCC4=CC(=O)C=C[C@]4(C)[C@@]3(Cl)[C@@H](O)C[C@]2(C)[C@@]1(OC(=O)c1ccco1)C(=O)CCl | inconclusive: 9.1 nM [inhibitor, full curve, poor fit]
CC(=O)OCC(=O)[C@@]12N=C(C)O[C@@H]1C[C@H]1[C@@H]3CCC4=CC(=O)C=C[C@]4(C)[C@H]3[C@@H](O)C[C@@]12C | inconclusive: 114 nM [inhibitor, full curve, poor fit]
C=C1C(=CC=C2CCC[C@]3(C)[C@@H]([C@H](C)C=C[C@H](C)C(C)C)CC[C@@H]23)C[C@@H](O)C[C@@H]1O | inconclusive: 7.2 nM [inhibitor, full curve]
COc1cc([C@@H]2c3cc4c(cc3[C@@H](O[C@@H]3O[C@@H]5CO[C@@H](C)O[C@@H]5[C@H](O)[C@@H]3O)[C@H]3COC(=O)[C@H]23)OCO4)cc(OC)c1O | active: 256 nM
